Source: article PMC9620001 (Journal of Medicinal Chemistry, 2022)

Legend:
in vitro = settings: human, microsomes, HLM CLint
physchem = settings: aqueous buffer, kinetic from dmso stock

With `COCc1nn(Cc2ccc(Cn3ccccc3=O)cc2)cc1C(=O)NCc1c(F)ccc(OC)c1C(F)F` [Compound 13m, COCc1nn(cc1C(=O)NCc1c(ccc(c1C(F)F)OC)F)Cc1ccc(cc1)CN1C=CC=CC1=O] the “kinetic sol aq assay buffer (pH 7.4)” value was over 0.13 mg/mL, the microsomal CLint (in vitro) was 100 µL/min/mg and the solubility kinetic at 30 s (physchem) was over 130 µg/mL.
